Results are given in words; binding and its absence hold for the method and conditions named. In cells and extracts the contact can be indirect. A yes stands for co-enrichment or nearness to the bait. Other partners may have been found. For some assays here: A no says only that the protein was not detected with the bait.

Protein sequences, listed by entry. Tags and fused reporters are not part of them. Lines headed by an entry give the natural chain unless they say otherwise; changes in a name come on top. Chains listed by the source or under a name are the forms on record and can include a tag or linker.
Arl3-T31N-FLAG (P36405, form named): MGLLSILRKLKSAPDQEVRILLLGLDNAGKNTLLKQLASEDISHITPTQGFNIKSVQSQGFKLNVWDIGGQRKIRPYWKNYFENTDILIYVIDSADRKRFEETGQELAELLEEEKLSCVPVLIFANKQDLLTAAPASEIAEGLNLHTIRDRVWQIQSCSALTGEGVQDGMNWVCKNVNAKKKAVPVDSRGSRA
Arl3-Q71L-FLAG (P36405, form named): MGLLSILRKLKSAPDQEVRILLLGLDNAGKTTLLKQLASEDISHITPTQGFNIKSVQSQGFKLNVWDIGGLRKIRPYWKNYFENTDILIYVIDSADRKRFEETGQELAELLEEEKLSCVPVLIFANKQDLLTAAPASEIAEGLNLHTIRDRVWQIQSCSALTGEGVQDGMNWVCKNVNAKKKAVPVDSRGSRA

One experiment concerns the target Arl3-T31N-FLAG (human) (UniProt P36405). Briefly: affinity purification with mass spectrometry; FLAG immunoprecipitation from DSS-cross-linked AD-293 cells expressing Arl3-Q71L-FLAG or Arl3-T31N-FLAG; in-gel tryptic digest, LC-MS/MS.
The target of another experiment is Arl3-Q71L-FLAG (human) (UniProt P36405). The description is as above.

B1: BART (endogenous) (protein, UniProt Q9Y2Y0 1-163)
chain: MDALEGESFALSFSSASDAEFDAVVGYLEDIIMDDEFQLLQRNFMDKYYLEFEDTEENKLIYTPIFNEYISLVEKYIEEQLLQRIPEFNMAAFTTTLQHHKDEVAGDIFDMLLTFTDFLAFKEMFLDYRAEKEGRGLDLSSGLVVTSLCKSSSLPASQNNLRH
In the case of B1, the binding entry with Arl3-T31N-FLAG (human) is reported as “no binding”; with Arl3-Q71L-FLAG (human) it was “binds”.

For the origin of these results see publication PMC9831603.
